For 15 compounds, survivor count and T/C results are on record in PubChem BioAssay AID248 (DTP/NCI, 2004).

The structures appear in SMILES notation. The list shows only some results of the screen, not a fair sample: it gathers tests that were run many times, whatever their T/C, doses with no T/C, and many T/C values between a quarter and a half above the control. Further doses and runs are listed elsewhere. T/C gives the treated animals as a percentage of the vehicle group. Some doses have a count of surviving animals in place of a T/C: the source holds a T/C of zero for them, seemingly a mark for toxic or unscored doses. Some doses without a T/C left all or most animals alive at the check, yet need not have been tolerated: survival well below the control is almost never listed, so the zero probably covers shortened survival too. Counts of survivors are from the toxicity check (mostly the fifth day) where no day follows; animals may have died later. Schedules are NCI's codes, taken here to give the interval after Q, in days (D) or hours (H), and the number of doses after X. Some doses were run more than once; their values stand side by side, smallest first. Some schedule codes hold Z or #, which are not explained here. Where survival is the endpoint, this PubChem deposit counts one and a half times the control or more as active, and values a quarter to a half above the control carry no call in these data; other NCI protocols may use other cut-offs. Some T/C values carry the count of animals alive at the toxicity check (mostly the fifth day); without a count, all were alive then.

The assay deals with L1210 leukemia ip in BDF1 mice, survival T/C. The experiment in a line: NCI In Vivo Anticancer Drug Screen. Data for tumor model L1210 Leukemia (intraperitoneal) in B6D2F1 (BDF1) mice. To be noted: T/C endpoint: mean survival time, higher T/C = longer survival.
The mark [1] stands for this setting: dose: 100.0 mg/kg/injection, schedule: Q01DX009 (ip), vehicle: Klucel (hydroxypropylcellulose) (HPC).
The mark [2] stands for this setting: dose: 200.0 mg/kg/injection, schedule: Q01DX009 (ip), vehicle: Klucel (hydroxypropylcellulose) (HPC).
Setting [3] is: dose: 200.0 mg/kg/injection, schedule: Q01DX009 (ip), vehicle: saline.
Setting [4] is: dose: 400.0 mg/kg/injection, schedule: Q01DX001 (ip), vehicle: saline.

For `CCCCCCC[As](=O)(O)O`, the survivor count was 0 of 3 (dose: 25.0 mg/kg/injection, schedule: Q01DX009 (ip), vehicle: Klucel (hydroxypropylcellulose) (HPC)); 0 of 3 (dose: 50.0 mg/kg/injection, schedule: Q01DX009 (ip), vehicle: Klucel (hydroxypropylcellulose) (HPC)); 0 of 3 under setting [1]; 0 of 3 under setting [2].
Consider `Nc1cc(C(=O)Nc2ccc(CCNC3=NCCN3)cc2)ccc1C(=O)Nc1ccc(CCNC2=NCCN2)cc1`, for which the T/C is 146 % of control (dose: 3.75 mg/kg/injection, schedule: Q01DX Z (ip), vehicle: water) and 141 % of control [5 of 6 alive] (dose: 15.0 mg/kg/injection, schedule: Q01DX Z (ip), vehicle: water). Moreover, the survivor count is recorded as 0 of 6 (dose: 18.7 mg/kg/injection, schedule: Q01DX001 (ip), vehicle: water); 0 of 6 (dose: 20.0 mg/kg/injection, schedule: Q01DX015 (ip), vehicle: water); 0 of 6 (dose: 30.0 mg/kg/injection, schedule: Q01DX015 (ip), vehicle: water); 0 of 6 (dose: 30.0 mg/kg/injection, schedule: Q01DX Z (ip), vehicle: water); 0 of 6 (dose: 37.5 mg/kg/injection, schedule: Q01DX001 (ip), vehicle: water); 0 of 6 (dose: 40.0 mg/kg/injection, schedule: Q01DX015 (ip), vehicle: water). Also, the survivor count is recorded as 0 of 6 (dose: 75.0 mg/kg/injection, schedule: Q01DX001 (ip), vehicle: water); 0 of 6 (dose: 280.0 mg/kg/injection, schedule: Q01DX Z (oral), vehicle: water); 3 of 6 (dose: 425.0 mg/kg/injection, schedule: Q01DX Z (oral), vehicle: water).
Consider `COc1ccc(/C=N/NC(=O)c2ccco2)cc1OC`, for which the survivor count (dose: 200.0 mg/kg/injection, schedule: Q01DX001 (ip), vehicle: other) is listed as 4 of 4.
Consider `CN(Cc1cnc2nc(N)nc(N)c2n1)c1ccc(C(=O)NC(CCC(=O)O)C(=O)O)cc1I` (stereo not drawn), for which the T/C (dose: 1.25 mg/kg/injection, schedule: Q01DX009 (ip), vehicle: sodium bicarbonate) was 147 % of control.
On to `CC1CCC2(O)C3(C)CC4(O)OC2(C1O)C1(O)C3(O)C(OC(=O)c2ccc[nH]2)C(O)(C(C)C)C41C` (stereo not drawn), for which the survivor count runs as follows: (dose: 0.5 mg/kg/injection, schedule: Q01DX001 (ip), vehicle: carboxymethylcellulose (CMC)) 0 of 6; (dose: 1.0 mg/kg/injection, schedule: Q01DX001 (ip), vehicle: carboxymethylcellulose (CMC)) 0 of 6; (dose: 15.0 mg/kg/injection, schedule: Q01DX001 (ip), vehicle: carboxymethylcellulose (CMC)) 0 of 6; (dose: 30.0 mg/kg/injection, schedule: Q01DX001 (ip), vehicle: carboxymethylcellulose (CMC)) 0 of 6; (dose: 60.0 mg/kg/injection, schedule: Q01DX001 (ip), vehicle: carboxymethylcellulose (CMC)) 0 of 6; (dose: 75.0 mg/kg/injection, schedule: Q01DX001 (ip), vehicle: carboxymethylcellulose (CMC)) 0 of 6. Moreover, the survivor count by setting is: (dose: 150.0 mg/kg/injection, schedule: Q01DX001 (ip), vehicle: carboxymethylcellulose (CMC)) 0 of 6; (dose: 300.0 mg/kg/injection, schedule: Q01DX001 (ip), vehicle: carboxymethylcellulose (CMC)) 0 of 6.
Turning to `CCN(CC)CCOc1ccc(OC)cc1`, the survivor count was 0 of 6 under setting [3]; 2 of 6 (dose: 200.0 mg/kg/injection, schedule: Q04DX003 (ip), vehicle: saline); 0 of 6 (dose: 400.0 mg/kg/injection, schedule: Q04DX003 (ip), vehicle: saline).
`CC[Si](CC)(CC)c1ccc(CCN2CC2)s1`: the survivor count is, setting by setting: (dose: 100.0 mg/kg/injection, schedule: Q01DX001 (ip), vehicle: carboxymethylcellulose (CMC)) 0 of 4; (dose: 200.0 mg/kg/injection, schedule: Q01DX001 (ip), vehicle: carboxymethylcellulose (CMC)) 0 of 4; (dose: 400.0 mg/kg/injection, schedule: Q01DX001 (ip), vehicle: carboxymethylcellulose (CMC)) 0 of 4.
As for `O=C(O)/C=C(\Cl)CC(=O)O`, the survivor count under setting [4] is 0 of 6.
`CC(=O)Oc1cc2c(cc1N=NN(C)C)[C@H]1CC[C@]3(C)[C@@H](O)CC[C@H]3[C@@H]1CC2`: the survivor count under setting [1] was 3 of 3 and the survivor count under setting [2] was 2 of 3.
Turning to `Cc1cc(C)c(CCc2c(C)cc(C)cc2C)c(C)c1`, the survivor count (dose: 100.0 mg/kg/injection, schedule: Q04DX003 (ip), vehicle: saline with Tween-80) is recorded as 6 of 6.
Consider `O=C1c2ccccc2S(=O)N1OCc1ccccc1` (stereo not drawn), for which the survivor count (dose: 400.0 mg/kg/injection, schedule: Q04DX002 (ip), vehicle: Klucel (hydroxypropylcellulose) (HPC)) is recorded as 1 of 3.
On to `CCCNc1ncnc2c1cnn2C`, for which the survivor count reads like this: (dose: 100.0 mg/kg/injection, schedule: Q01DX009 (ip), vehicle: saline) 6 of 6; under setting [3], 1 of 6; under setting [4], 0 of 6.
For `O=C1/C(=C\c2ccccc2)COC/C1=C\c1ccccc1`, the T/C under setting [3] was 126 % of control [5 of 6 alive].
Turning to `O=NN1CCCC1C(=O)O` (stereo not drawn), under setting [4], the survivor count was 1 of 4 and 2 of 4.
`Cc1cccc(SC(=O)Nc2cccc(Cl)c2C)c1`: the survivor count is 5 of 6 (dose: 200.0 mg/kg/injection, schedule: Q01DX009 (ip), vehicle: gum acacia) and 0 of 6 (dose: 400.0 mg/kg/injection, schedule: Q01DX009 (ip), vehicle: gum acacia).
